SMILES strings stand for the structures. This is one part of the list. The main result of the screen is listed elsewhere. These columns were measured beside it and carry no call. Most of these compounds were active or inconclusive in the main read-out, so they are no random draw. Potencies come from curve fits of mixed quality, noted in brackets.

Among the data in PubChem BioAssay AID1487 (National Center for Advancing Translational Sciences (NCATS), 2009) are AC50 values, retold here.

The experiment in a line: qHTS Assay for Modulators of Lamin A Splicing. Conditions: HeLa LMNA splicing GFP/RFP minigene ratio, 48 h. Summed up:
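S3 HeLa stable clones carrying a lamin A-EGFP splicing minigene plus DsRed2 were seeded at 600 cells/well in Opti-MEM with 2% FBS, pin-dosed and incubated 48 h at 37°C. Acumen cytometry (488 nm) gave the GFP/RFP total-intensity ratio.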

Where [1] appears, read: measured here: GFP splicing reporter channel.
The mark [2] stands for this setting: measured here: RFP viability control channel.

Consider `CSc1nc2ccc(S(=O)(=O)N3CCc4ccccc43)cc2s1`, for which the AC50 by setting is: under setting [1], 35.5 µM [rising, single point]; under setting [2], 15.8 µM [rising, single point].
As for `Nc1nc(CSc2nc3ccccc3s2)nc(Nc2ccccc2)n1`, under setting [1], the AC50 was 35.5 µM [falling, partial curve, poor fit].
Turning to `O=[N+]([O-])c1cncc([N+](=O)[O-])c1Nc1ccccc1Cl`, the AC50 under setting [2] is 35.5 µM [rising, single point].
Take `Cc1ccc(N2CCN(c3cc(C)nc4nc(C)nn34)CC2)c(C)c1`: the AC50 under setting [2] is 14.1 µM [rising, single point].
`CC1(C)SC(=S)N(NC(=O)Nc2ccccc2)C1N(O)C(=O)Nc1cccc2ccccc12` (stereo not drawn): the AC50 is, setting by setting: under setting [1], 35.5 µM [falling, partial curve]; under setting [2], 35.5 µM [falling, single point].
Take `CC1(C(=O)Nc2ccc3ccccc3c2)CC1(Br)Br` (stereo not drawn): the AC50 under setting [1] was 3.16 µM [falling, partial curve].
On the same count and under the same terms, under `COc1ccccc1NC(=O)CSc1nc2sc(C)c(C)c2c(=O)n1Cc1ccco1` stands 1.26 µM [rising, full curve, poor fit].
Regarding `Clc1ccccc1-c1nnc2sc(C3COc4ccccc4O3)nn12` (stereo not drawn), the AC50 under setting [2] is 8.91 µM [rising, partial curve].
For the molecule `CCC(C)(C)n1nnnc1C(c1cccs1)N1CCN(c2nc3ccccc3s2)CC1` (stereo not drawn), the AC50 under setting [1] is 11.2 µM [rising, partial curve, poor fit] and the AC50 under setting [2] is 15.8 µM [rising, partial curve].
For the molecule `CN(C)c1ccc(/C=N/n2ncc3ccccc32)cc1`, the half-maximal activity concentration (AC50) reads like this: under setting [1], 25.1 µM [rising, single point]; under setting [2], 35.5 µM [rising, single point].
As to `CCCC(=O)NCCc1c2n(c3ccc(OC)cc13)CCCc1ccccc1-2`, the AC50 by setting is: under setting [1], 12.6 µM [falling, partial curve]; under setting [2], 12.6 µM [falling, partial curve].
Turning to `COc1cc(/C=N/NC(=O)c2cc(-c3ccc4c(c3)OCO4)n[nH]2)ccc1O`, the AC50 under setting [2] is 11.2 µM [rising, single point].
Take `Cc1ccc(C2NC(=O)c3c(sc4c3CCN(C)C4)N2)s1` (stereo not drawn): under setting [2], the AC50 is 5.62 µM [rising, single point].
Still for that read-out and setting: the result for `COc1ccc(CCNc2cc(C)nc3c(-c4ccccc4)cnn23)cc1OC` reads 8.91 µM [rising, partial curve, poor fit]; that for `CCc1nc(SCC(=O)c2ccc3c(c2)OCCO3)c2ccccc2n1`, 15.8 µM [rising, single point]; that for `O=c1c(-c2nc3ccccc3o2)c2oc3ccccc3n2c2ccccc12`, 22.4 µM [rising, single point].
In the case of `Cc1cc2c(cc1Cl)N(C(=O)Nc1ccnc3ccccc13)CC2`, the AC50 under setting [2] is 0.000891 µM [falling, full curve, poor fit].
On to `O=C(O)Cn1nc(C(F)(F)F)c2c1CCCCC2`, for which the AC50 reads like this: under setting [1], 22.4 µM [falling, single point]; under setting [2], 20 µM [falling, single point].
On to `O=C1c2ccc3c4c(ccc(c24)C(=O)N1CCCCO)C(=O)N(CCCCO)C3=O`, for which the AC50 runs as follows: under setting [1], 2.82 µM [falling, full curve]; under setting [2], 3.16 µM [falling, full curve].
Take `CC[C@H]1OC(=O)[C@H](C)[C@@H](O[C@H]2C[C@@](C)(OC)[C@@H](O)[C@H](C)O2)[C@H](C)[C@@H](O[C@@H]2O[C@H](C)C[C@H](N(C)C)[C@H]2O)[C@](C)(O)C[C@@H](C)[C@@H]2N[C@@H](COCCOC)O[C@H]([C@H]2C)[C@]1(C)O`: the AC50 is, setting by setting: under setting [1], 0.708 µM [falling, partial curve, poor fit]; under setting [2], 35.5 µM [falling, partial curve, poor fit].
With `O=C(Nc1nc(-c2ccc(F)cc2)cs1)c1ccc(N2C(=O)CCC2=O)cc1`, the AC50 under setting [1] was 2.82 µM [rising, full curve, poor fit] and the AC50 under setting [2] was 6.31 µM [rising, full curve].
In the case of `S=C(NCc1cccnc1)Nc1ccc(Oc2ccccc2)cc1`, the AC50 reads like this: under setting [1], 3.55 µM [falling, partial curve]; under setting [2], 3.55 µM [falling, partial curve].
With `Cc1cc(Cl)ccc1NS(=O)(=O)c1ccc2c(c1)CC(C)N2C(=O)C1CCC1` (stereo not drawn), under setting [2], the AC50 was 12.6 µM [rising, single point].
On to `C/C(=N\Nc1ccc([N+](=O)[O-])cc1)c1cc2ccccc2o1`, for which the AC50 reads like this: under setting [1], 0.0891 µM [rising, full curve, poor fit]; under setting [2], 0.0398 µM [rising, full curve, poor fit].
With `CC(C)c1onc(C(=O)N2CCCCCC2)c1[N+](=O)[O-]`, the AC50 under setting [1] was 1 µM [rising, full curve, poor fit].
Turning to `Cc1nnc2c3ccccc3c(-c3cccs3)nn12`, the AC50 under setting [1] is 7.08 µM [falling, partial curve].
Consider `O=C(Nc1cc(Cl)cc(Cl)c1)c1ccc(Cn2c(=O)[nH]c3ccsc3c2=O)cc1`, for which, under setting [2], the AC50 was 3.16 µM [rising, full curve, poor fit].
The same measure, in the same setting: under `CCCOc1ccc(Cc2c(Cl)nc(SC)nc2N(C)C)cc1` stands 11.2 µM [rising, partial curve].
In the case of `C[C@H](O)C(=O)Nc1c(I)c(C(=O)NC(CO)CO)c(I)c(C(=O)NC(CO)CO)c1I`, the AC50 is, setting by setting: under setting [1], 3.16 µM [falling, single point]; under setting [2], 1.41 µM [falling, single point].
`COC(=O)c1[nH]c2ccccc2c1NC(=O)CN1CCCc2ccccc21`: under setting [2], the AC50 was 17.8 µM [rising, single point].
For the molecule `CCOc1cc(C2C(C(=O)OC)=C(C)NC3=C2C(=O)c2ccccc23)c(Br)cc1O` (stereo not drawn), the AC50 is 35.5 µM [falling, single point] under setting [1] and 0.00794 µM [falling, full curve, poor fit] under setting [2].
For the molecule `S=c1[nH]cc(-c2ccccc2)n1-c1cccc(Cl)c1`, the AC50 by setting is: under setting [1], 17.8 µM [rising, partial curve]; under setting [2], 35.5 µM [rising, single point].
As for `Cc1nn(-c2ccccc2)c(N)c1C(c1ccc(C(C)C)cc1)c1c(C)nn(-c2ccccc2)c1N`, the AC50 under setting [2] is 11.2 µM [rising, partial curve].
Still for that read-out and setting: the result for `Nc1[nH]nc2nc(N3CCOCC3)nc(-c3ccccc3)c12` reads 35.5 µM [rising, single point]; that for `O=c1c(=O)n(Cc2c(F)cccc2Cl)ccn1Cc1ccccc1`, 31.6 µM [rising, single point]; that for `Cc1nn(Cc2cccc(C(=O)N3CCCC(C)C3)c2)c(C)c1[N+](=O)[O-]` (stereo not drawn), 17.8 µM [rising, single point].
Same read-out and setting: under `CCn1c(-c2ccc(Cl)cc2)n[nH]c1=S` stands 12.6 µM [falling, partial curve, poor fit].
With `O=C(CSc1nnnn1-c1ccccc1)Nc1ncc2c(n1)CC(c1ccco1)CC2=O` (stereo not drawn), the AC50 under setting [1] was 17.8 µM [rising, partial curve, poor fit].
With `O=C(C1CCCO1)N1CCN(C(=S)Nc2ccc(Cl)cc2Cl)CC1` (stereo not drawn), the AC50 is, setting by setting: under setting [1], 12.6 µM [rising, single point]; under setting [2], 14.1 µM [rising, partial curve].
Turning to `COc1ccc(/C=C2\CCCC3C2=NN(C(=O)COC(=O)CNC(=O)c2ccccc2)C3c2ccc(OC)cc2)cc1` (stereo not drawn), under setting [2], the AC50 is 20 µM [rising, single point].
For `Cc1cccc(C#Cc2ccccc2)n1`, under setting [2], the AC50 is 0.00224 µM [falling, full curve, poor fit].
On to `COc1cccc(-n2c(=O)c3c(C)c(C(=O)N(C)C)sc3n(CC(=O)NCC3CCCO3)c2=O)c1` (stereo not drawn), for which the AC50 under setting [2] is 0.0708 µM [falling, full curve, poor fit].
In the case of `O=C(CN1C(=O)C2CCCCN2c2ccc(C(=O)N3CCCC3)cc21)NCc1cccc(F)c1` (stereo not drawn), under setting [1], the AC50 is 5.62 µM [falling, partial curve, poor fit].
In the case of `COc1ccc(NC(=O)Nc2ccccc2OCc2cc(=O)n3ccccc3n2)c(OC)c1`, the AC50 reads like this: under setting [1], 35.5 µM [falling, single point]; under setting [2], 35.5 µM [falling, single point].
`COc1ccc(-c2nc(NC(=O)C3CCN(c4nc5ccccc5o4)CC3)sc2C)cc1`: the AC50 under setting [2] was 11.2 µM [rising, partial curve].
Consider `CC(=O)OC1CC2CCC1(C)C2(C)C` (stereo not drawn), for which, under setting [1], the AC50 was 35.5 µM [rising, single point].
Regarding `CCN(CC)CCOc1ccc2nc(N(C)C)sc2c1`, the AC50 under setting [2] was 1.41 µM [rising, partial curve, poor fit].
Consider `CCOC(=O)N1CCC(Nc2ncnc3c2cnn3-c2ccc(C)cc2C)CC1`, for which the AC50 under setting [2] is 14.1 µM [rising, partial curve].
Turning to `O=C(NCc1ccccc1)c1ccc2c(c1)nc1n2CCCCC1`, the AC50 by setting is: under setting [1], 0.708 µM [rising, single point]; under setting [2], 0.794 µM [rising, full curve, poor fit].
Consider `Cn1cnnc1Sc1ccc(/C=C/C(=O)c2ccc(O)cc2)cc1[N+](=O)[O-]`, for which the AC50 under setting [1] is 0.0891 µM [falling, full curve] and the AC50 under setting [2] is 0.112 µM [falling, full curve, poor fit].
Take `Cc1cc(C)n(Cc2ccc(C(=O)Nc3ccc(Br)cc3C)o2)n1`: the AC50 under setting [2] is 35.5 µM [rising, single point].
With `CCOc1cccc(C(=O)Nc2ccc3oc(Cc4ccc(Cl)cc4)nc3c2)c1`, the AC50 under setting [2] is 6.31 µM [rising, full curve].
With `CCn1ccc(C(=O)Nc2ccc(S(=O)(=O)Nc3ccccc3OC)cc2)n1`, the AC50 by setting is: under setting [1], 17.8 µM [rising, single point]; under setting [2], 22.4 µM [rising, single point].
`COc1ccc(N(CC(=O)Nc2ccc(S(=O)(=O)N3CCCCC3)cc2)S(C)(=O)=O)cc1OC`: under setting [2], the AC50 is 0.0224 µM [rising, full curve, poor fit].
